From PubChem BioAssay AID1671190 (National Center for Advancing Translational Sciences (NCATS), 2021)
Hit rate of the full screen: of about 580,000 compounds, about 6,100 (1.1%) were called active. The shares of active, inactive and inconclusive entries below differ from those in the screen. Calls follow the shape of the dose curve; as a rule, active = well fitted inhibition curve with a large enough effect; inconclusive = small, poorly fitted or top-dose-only effect, or another doubt; inactive = no such curve, though single readings can be large or run the other way. Potencies beside an inconclusive call are fits to weak or partial responses and may not hold up.

By UniProt entry, the sequences of proteins in these tests, tags left out. Where a name states a change or a piece, a line headed by the entry shows the natural chain unless it says otherwise.
UniProt P18054: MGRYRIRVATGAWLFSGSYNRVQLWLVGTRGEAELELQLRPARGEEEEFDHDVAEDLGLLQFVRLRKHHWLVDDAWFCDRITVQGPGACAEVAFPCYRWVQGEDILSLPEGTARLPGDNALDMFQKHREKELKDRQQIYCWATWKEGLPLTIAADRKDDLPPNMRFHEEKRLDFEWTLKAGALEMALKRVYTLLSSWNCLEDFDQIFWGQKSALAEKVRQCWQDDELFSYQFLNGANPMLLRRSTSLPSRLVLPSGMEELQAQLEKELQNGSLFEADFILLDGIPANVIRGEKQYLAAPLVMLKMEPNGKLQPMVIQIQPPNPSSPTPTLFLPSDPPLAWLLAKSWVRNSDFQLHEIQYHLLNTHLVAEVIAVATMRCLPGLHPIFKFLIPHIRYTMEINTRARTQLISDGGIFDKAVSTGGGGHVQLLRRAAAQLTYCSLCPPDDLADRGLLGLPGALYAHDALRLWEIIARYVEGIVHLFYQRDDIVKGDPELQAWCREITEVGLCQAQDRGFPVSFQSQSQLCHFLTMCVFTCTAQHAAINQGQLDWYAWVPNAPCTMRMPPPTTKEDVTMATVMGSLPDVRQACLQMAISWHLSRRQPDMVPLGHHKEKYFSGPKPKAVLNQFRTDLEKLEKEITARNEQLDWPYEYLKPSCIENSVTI

molecular target: Polyunsaturated fatty acid lipoxygenase ALOX12 (Homo sapiens) (UniProt P18054); experiment: Primary qHTS assay for inhibitors of human arachidonate 12S-lipoxygenase (ALOX12): Round 2; conditions: purified 12hLO, xylenol orange hydroperoxide absorbance; series mostly up to 108 µM
In short: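 Hydroperoxide product was detected by ferrous iron/xylenol orange as the 573 to 405 nm absorbance ratio. Arachidonic acid at 40 uM (final) was turned over for 30 min at room temperature by 150 nM human 12hLO, pH 7.0 Hepes buffer, after 15 min compound preincubation.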
Potency is read from the fitted curve at half-maximal effect.

Row | Structure (SMILES) | Potency
1 | Cc1cccc(NC(=O)c2nc3ccccc3nc2N2CCCC2)c1 | inconclusive: 50.1 µM [inhibitor, single point]
2 | COc1ccc(-c2c(C(F)(F)F)oc3cc(OC(C)=O)ccc3c2=O)cc1 | inconclusive: 50.1 µM [inhibitor, partial curve, poor fit]
3 | CCOC(=O)c1c(C)[nH]c(C(=O)OC(C)C(=O)Nc2ccccc2OC)c1C (centres undefined) | inactive
4 | CC(NC(=O)CCNC(=O)c1ccc(F)cc1Cl)c1ccc(Cl)c(Cl)c1 (centres undefined) | inconclusive: 56.2 µM [inhibitor, partial curve, poor fit]
5 | Cn1c(C(=O)N(Cc2ccccc2)Cc2ccccc2)cc2c(=O)n3ccccc3nc21 | inconclusive: 89.1 µM [inhibitor, single point]
6 | Cc1ccc(S(=O)(=O)N2[C@H](c3ccc(Cl)cc3)CC(=O)[C@@H]3CN(S(=O)(=O)c4ccccc4C)[C@H](c4ccc(Cl)cc4)C[C@@H]32)cc1 | inconclusive: 89.1 µM [inhibitor, single point]
7 | COc1ccc(NC(=O)c2sc3nc(C)c(C(=O)Nc4ccc(C)cc4C)c(-c4ccc(Cl)cc4)c3c2N)cc1 | inconclusive: 141 µM [inhibitor, single point]
8 | COc1ccccc1CCn1c(=O)cnc2cncnc21 | inactive
9 | Fc1ccc(-c2nnc(Cc3ccc(Cl)cc3)o2)cc1 | inconclusive: 0.562 µM [inhibitor, full curve]
10 | Cc1ccc2nc(NCc3ccco3)c(C=NCc3ccco3)c(=O)n2c1 | inactive
11 | O=C(NC(=S)NNC(=O)[C@H]1C[C@@H]1c1ccccc1)c1cccc(F)c1 | inconclusive: 79.4 µM [inhibitor, partial curve, poor fit]
12 | O=C1C2CC=C(Cl)CC2C(=O)N1CCc1ccccc1 (centres undefined) | active: 10 µM
13 | NC(=O)c1nsc(C(=O)N(Cc2ccc(F)cc2)C(C(=O)NCC2CCCO2)c2ccc(F)cc2)c1N (centres undefined) | inconclusive: 11.2 µM [inhibitor, full curve]
14 | CC(NC(=O)C1CCCO1)c1ccccc1 (centres undefined) | inconclusive: 100 µM [inhibitor, partial curve, poor fit]
15 | COc1ccc(-n2nc3n(c2=O)CCN(C(=O)c2ccc(Cl)cc2)C3)cc1 | inconclusive: 0.403 µM [inhibitor, single point]
16 | Nc1ncnc2c1ncn2[C@@H]1O[C@H](COP(=O)(O)OP(=O)(O)OC[C@H]2OC(O)[C@H](O)[C@@H]2O)[C@@H](O)[C@H]1O (some centres undefined) | inconclusive: 50.1 µM [inhibitor, partial curve, poor fit]
17 | Cn1c(=O)c2c(nc(Cl)n2Cc2ccccc2Cl)n(C)c1=O | inactive
18 | CCC(C)c1ccccc1NC(=O)c1cc(C)nc2ccccc12 (centres undefined) | inactive
19 | COc1ccc(-c2n[nH]c(=S)n2N)c(OC)c1 | inconclusive: 31.6 µM [inhibitor, partial curve]
20 | COc1ccc(Cn2cc(CN3CC(N4CCN(Cc5ccccc5F)CC4)CS3(=O)=O)nn2)cc1 (centres undefined) | inconclusive: 89.1 µM [inhibitor, partial curve, poor fit]

Row | Structure (SMILES) | Potency
21 | CCCCCCCCS(=O)c1sc2nc3c(cc2c1N)CCCC3 (centres undefined) | inconclusive: 10 µM [inhibitor, partial curve]
22 | CCC1Oc2ccc(NC(=O)c3cccs3)cc2CN(Cc2ccc(F)cc2)C1=O (centres undefined) | inconclusive: 39.8 µM [inhibitor, single point]
23 | Cc1ccc(C)c(NC(=S)Nc2ncccc2C)c1 | active: 28.2 µM
24 | CCCc1cc(-c2n[nH]c(=S)n2Cc2ccccc2)cs1 | inconclusive: 50.1 µM [inhibitor, partial curve, poor fit]
25 | CCC(=O)N1c2ccc(S(=O)(=O)CCC(=O)NCc3ccc4c(c3)OCO4)cc2CC1C (centres undefined) | inactive
26 | CSc1cccc(NS(=O)(=O)c2cc3[nH]c(=O)c(=O)[nH]c3cc2C)c1 | inconclusive: 25.1 µM [inhibitor, single point]
27 | COc1ccc(-c2nc3sc(CCNC(=O)C(=O)Nc4cc(C)cc(C)c4)c(C)n3n2)cc1 | inconclusive: 56.2 µM [inhibitor, partial curve, poor fit]
28 | Cc1ccc(NC(=O)c2cccc(NC(=O)N3CCSc4ncccc43)c2)cc1Cl | inconclusive: 6.31 µM [inhibitor, full curve, poor fit]
29 | CCN1/C(=C\C=C2\C(=O)N(c3ccccc3)C(=S)N2C)Sc2ccccc21 | inconclusive: 50.1 µM [inhibitor, partial curve, poor fit]
30 | C#CCOCCOCCOCCNc1nc(N2CCN(C(=O)Cn3cc(CCO)nn3)CC2)nc(N2CCN(C(=O)Cn3cc(CCCCN)nn3)CC2)n1 | inconclusive: 35.5 µM [inhibitor, partial curve, poor fit]
31 | Cc1ccc(NS(=O)(=O)c2ccc(N/N=C/c3ccc([N+](=O)[O-])o3)c([N+](=O)[O-])c2)c(C)c1 | inactive
32 | O=C(NC(=S)N1CCOCC1)C12CC3CCC(CC(C3)C1)C2 | inactive
33 | COC(=O)CNC(=O)N1CCCCCCNC(=O)[C@@H]2C[C@@H](c3nc(-c4cccnc4)no3)C[C@@H]21 | inactive
34 | COc1ccc(F)cc1S(=O)(=O)NCCc1csc(-c2ccc(Cl)cc2)n1 | inconclusive: 79.4 µM [inhibitor, partial curve, poor fit]
35 | OCC1(Cc2ccc(Cl)cc2)CCN(Cc2ccc3nsnc3c2)CC1 | inconclusive: 6.31 µM [inhibitor, full curve, poor fit]
36 | NC(=O)CC(NC(=O)c1ccc(Br)cc1)c1ccc(N2CCN(c3ccccc3)CC2)c([N+](=O)[O-])c1 (centres undefined) | inactive
37 | Cc1onc(-c2ccccc2Cl)c1C(=O)Nc1ccc(OCC(=O)N2CCOCC2)cc1 | inactive
38 | COc1ccc2[nH]c(C(=O)N3C[C@@H](Oc4cccnc4)C[C@H]3C(=O)N3CCCC3)cc2c1 | inconclusive: 17.8 µM [inhibitor, full curve]
39 | O=C(NC(NC(=S)Nc1ccccc1C(=O)O)C(Cl)(Cl)Cl)c1ccco1 (centres undefined) | inconclusive: 44.7 µM [inhibitor, partial curve, poor fit]

Of the compounds above, three contain a furan ring, fused or not:
Row | Structure (SMILES) | Potency
10 | Cc1ccc2nc(NCc3ccco3)c(C=NCc3ccco3)c(=O)n2c1 | inactive
31 | Cc1ccc(NS(=O)(=O)c2ccc(N/N=C/c3ccc([N+](=O)[O-])o3)c([N+](=O)[O-])c2)c(C)c1 | inactive
39 | O=C(NC(NC(=S)Nc1ccccc1C(=O)O)C(Cl)(Cl)Cl)c1ccco1 (centres undefined) | inconclusive: 44.7 µM [inhibitor, partial curve, poor fit]
